{"sequences": {"note": "Chains of the proteins cited; added tags and fusions are not shown.", "UniProt P18054, whole entry, looked up": "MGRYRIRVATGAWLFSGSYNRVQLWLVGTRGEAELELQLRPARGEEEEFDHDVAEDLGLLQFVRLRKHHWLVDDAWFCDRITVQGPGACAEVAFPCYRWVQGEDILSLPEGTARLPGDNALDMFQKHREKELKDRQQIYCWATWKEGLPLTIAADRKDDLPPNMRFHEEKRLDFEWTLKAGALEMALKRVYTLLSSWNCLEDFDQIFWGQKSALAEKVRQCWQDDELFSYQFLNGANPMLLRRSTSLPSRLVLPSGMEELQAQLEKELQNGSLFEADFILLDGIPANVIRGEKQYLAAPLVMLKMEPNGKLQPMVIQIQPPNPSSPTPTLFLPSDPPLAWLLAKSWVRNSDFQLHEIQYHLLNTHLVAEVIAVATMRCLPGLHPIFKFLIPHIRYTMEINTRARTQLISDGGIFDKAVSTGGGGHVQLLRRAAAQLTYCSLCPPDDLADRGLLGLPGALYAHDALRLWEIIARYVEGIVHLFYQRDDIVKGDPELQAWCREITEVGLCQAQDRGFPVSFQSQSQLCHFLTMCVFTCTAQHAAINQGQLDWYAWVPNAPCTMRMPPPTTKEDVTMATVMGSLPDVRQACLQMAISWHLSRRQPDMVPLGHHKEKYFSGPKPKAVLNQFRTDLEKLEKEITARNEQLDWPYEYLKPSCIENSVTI"}, "source": "PubChem BioAssay AID1671190", "about": "(National Center for Advancing Translational Sciences (NCATS), 2021)", "note": "Among all 580,000 compounds or so, about 6,100 (1.1%) were called active. The shares of active, inactive and inconclusive entries below differ from those in the screen. Calls come from the whole dose curve; as a rule, active = well fitted inhibition curve with a large enough effect; inconclusive = small, poorly fitted or top-dose-only effect, or another doubt; inactive = no such curve, though single readings can be large or run the other way. Potencies of inconclusive entries are doubtful fits and often do not repeat. % is set by controls: 0 for no effect and ±100 for the full control effect; potency is the fitted concentration of half-maximal effect.", "data": [{"target": "Polyunsaturated fatty acid lipoxygenase ALOX12 (Homo sapiens) (UniProt P18054)", "assay": "Primary qHTS assay for inhibitors of human arachidonate 12S-lipoxygenase (ALOX12): Round 2", "conditions": "purified 12hLO, xylenol orange hydroperoxide absorbance; activity change, negative = inhibition: at 108 µM (top of the series) unless noted", "how_it_was_run": "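Hydroperoxide product was detected by ferrous iron/xylenol orange as the 573 to 405 nm absorbance ratio. Arachidonic acid at 40 uM (final) was turned over for 30 min at room temperature by 150 nM human 12hLO, pH 7.0 Hepes buffer, after 15 min compound preincubation.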", "values": [{"molecule": "CCOCCN1CCN([C@@H]2c3ccccc3C3(CCNCC3)[C@H]2O)CC1", "Potency": "inconclusive: 14.1 µM [inhibitor, full curve, poor fit]"}, {"molecule": "Cc1cccc(/C=C/C(=O)c2ccc(NC3=NCCCS3)cc2)c1", "activity change, negative = inhibition": "inactive: -16.8%"}, {"molecule": "CCC(=O)N1CCCCCCNC(=O)CC1c1ccccc1", "note": "(centres undefined)", "activity change, negative = inhibition": "inactive: 30.9%"}, {"molecule": "O=C(N/N=C/c1cc(Br)cc(Cl)c1O)c1ccc2c(c1)OCO2", "Potency": "active: 22.4 µM"}, {"molecule": "CCN(CC)C(=O)COn1c(SCC(=O)N(CC)CC)nc2ccccc2c1=O", "Potency": "inconclusive: 0.562 µM [inhibitor, full curve, poor fit]"}, {"molecule": "O=C1CCN(C(=O)[C@@H]2CCCN2Cc2ccc(F)cc2F)CCCCCCN1", "Potency": "inconclusive: 39.8 µM [inhibitor, full curve, poor fit]"}, {"molecule": "CCOCc1cc(CN2CCN(c3cccc(C(F)(F)F)c3)CC2)c(O)c2ncccc12", "activity change, negative = inhibition": "inactive: 0.507%"}, {"molecule": "O=C1C(O)=CC(=C(c2ccccc2)c2ccccc2)c2ccccc21", "Potency": "inconclusive: 35.5 µM [inhibitor, partial curve]"}, {"molecule": "COc1ccc(OC)c(S(=O)(=O)Nc2ccc(O)c3ccccc23)c1", "Potency": "inconclusive: 17.8 µM [inhibitor, partial curve, poor fit]"}, {"molecule": "O=C(O)CCCn1c(=S)[nH]c2c(sc3ccc([N+](=O)[O-])cc32)c1=O", "Potency": "active: 17.8 µM"}, {"molecule": "COc1cc(N=Cc2c(O)[nH]c3ccccc23)cc(OC)c1OC", "Potency": "inconclusive: 31.6 µM [inhibitor, partial curve]"}, {"molecule": "c1ccc(-c2nnc3n2NC(c2ccc4c(c2)OCO4)S3)cc1", "note": "(centres undefined)", "Potency": "inconclusive: 17.8 µM [inhibitor, full curve, poor fit]"}, {"molecule": "Cn1cc(-c2cccc(O)c2)c2nc(COc3ccc(Cl)cc3)cn2c1=O", "activity change, negative = inhibition": "inactive: -19.6% [at 176 µM]"}, {"molecule": "Cc1ccc(CNC(C)(C)CO)cc1", "Potency": "inconclusive: 112 µM [inhibitor, partial curve, poor fit]"}, {"molecule": "COc1cc(C(=O)OC2CCCCC2=O)cc(OC)c1C", "note": "(centres undefined)", "Potency": "inconclusive: 56.2 µM [inhibitor, partial curve, poor fit]"}, {"molecule": "N#Cc1cn(CC(=O)Nc2ccc(F)c(F)c2)c2ccccc12", "Potency": "inconclusive: 89.1 µM [inhibitor, partial curve, poor fit]"}, {"molecule": "CC(C)c1ccc(/C=C/C(=O)c2ccc(O)c(CCCl)c2)cc1", "Potency": "inconclusive: 8.91 µM [inhibitor, partial curve, poor fit]"}, {"molecule": "NS(=O)(=O)c1ccc(NC(=S)NCc2cccs2)cc1", "Potency": "inconclusive: 50.1 µM [inhibitor, partial curve, poor fit]"}, {"molecule": "O=C(c1ccc(CS(=O)c2ccc(Br)cc2)o1)N1CCN(C2CCCCC2)CC1", "note": "(centres undefined)", "activity change, negative = inhibition": "inactive: -12.8%"}, {"molecule": "CCN(CC)Cc1cnc2c(C(=O)Nc3ccc(OC)c(OC)c3)cnn2c1", "activity change, negative = inhibition": "inactive: 30%"}, {"molecule": "COc1ccc(C(=O)NC(=S)Nc2ccc(NC(=O)c3ccco3)cc2)cc1[N+](=O)[O-]", "Potency": "inconclusive: 50.1 µM [inhibitor, partial curve, poor fit]"}, {"molecule": "CC(C)c1nc2c(c(-c3ccc(O)cc3)n1)CN(C(=O)Nc1ccc(Cl)cc1)CC2", "Potency": "inconclusive: 44.7 µM [inhibitor, partial curve]"}, {"molecule": "COc1cccc(CNC(=O)Cc2n[nH]c(=O)c3ccccc23)c1", "activity change, negative = inhibition": "inactive: 29.8%"}, {"molecule": "CCOc1ccccc1NC(=O)Cn1c(=O)c(-c2noc(C)n2)c2n(c1=O)CCCCC2", "activity change, negative = inhibition": "inactive: -1.97%"}, {"molecule": "COc1ccccc1CNS(=O)(=O)c1ccc(-n2cnnn2)c(C)c1", "activity change, negative = inhibition": "inactive: -0.254%"}, {"molecule": "Cc1ccc2c(COC(=O)c3n[nH]c4ccccc34)cc(=O)oc2c1C", "Potency": "inconclusive: 44.7 µM [inhibitor, partial curve, poor fit]"}, {"molecule": "CCCCSc1n[nH]c(=S)c2nc[nH]c12", "Potency": "inconclusive: 44.7 µM [inhibitor, partial curve, poor fit]"}, {"molecule": "CCOc1ccc(OC(=O)c2cccc(S(=O)(=O)N3CCN(C)CC3)c2)cc1", "Potency": "inconclusive: 39.8 µM [inhibitor, partial curve, poor fit]"}, {"molecule": "CCOC(=O)c1c(-c2ccco2)csc1NC(=O)COC(=O)c1cnccn1", "Potency": "inconclusive: 100 µM [inhibitor, partial curve, poor fit]"}, {"molecule": "COCCCNc1ncnc2ccc(C)cc12", "Potency": "inconclusive: 7.08 µM [inhibitor, partial curve, poor fit]"}, {"molecule": "COc1ccccc1N1CCN([C@@H]2[C@H](O)[C@H](CO)O[C@@H]2CNC(=O)NC(C)C)CC1", "Potency": "inconclusive: 10 µM [inhibitor, full curve]"}, {"molecule": "O=[N+]([O-])c1cc(S(=O)(=O)N/N=C/c2cccs2)ccc1Cl", "Potency": "inconclusive: 31.6 µM [inhibitor, partial curve, poor fit]"}, {"molecule": "Cc1ccc(S(=O)(=O)Nc2nc3ccccc3nc2Nc2cccc(S(=O)(=O)N3CCCC3)c2)cc1", "Potency": "inconclusive: 56.2 µM [inhibitor, partial curve, poor fit]"}, {"molecule": "CCc1nc(NC(c2ccccc2)c2ccco2)c2cnn(C)c2n1", "note": "(centres undefined)", "activity change, negative = inhibition": "inactive: 32.7%"}, {"molecule": "Cc1csc(SCC(=O)Nc2ccccc2C(=O)Nc2ccc(F)cc2)n1", "Potency": "inconclusive: 50.1 µM [inhibitor, partial curve, poor fit]"}, {"molecule": "COc1ccc(CC(=O)Nc2cc(S(=O)(=O)N3CCOCC3)ccc2N2CCCC2)c(OC)c1", "Potency": "inconclusive: 14.1 µM [inhibitor, full curve, poor fit]"}, {"molecule": "CCOC1=C2[C@@H](CN(S(=O)(=O)c3ccc(C)cc3)[C@H]2c2ccccc2)[C@H]2C(=O)N(Cc3ccccc3)C(=O)[C@H]2C1", "activity change, negative = inhibition": "inconclusive: -40.3% [inhibitor]"}, {"molecule": "O=C(OCC(=O)N1CCC(Cc2ccccc2)CC1)c1cc(Br)ccc1O", "Potency": "inconclusive: 44.7 µM [inhibitor, partial curve]"}, {"molecule": "Cn1c(=O)[nH]c(=O)c2c1nc(N1CCN(Cc3ccccc3F)CC1)n2Cc1ccccc1F", "Potency": "inconclusive: 89.1 µM [inhibitor, single point]"}, {"molecule": "Cc1cccc(N(CC(=O)NC2CCCC2)C(=O)CS(=O)CC(=O)Nc2ccc3c(c2)OCO3)c1C", "note": "(centres undefined)", "Potency": "inconclusive: 44.7 µM [inhibitor, partial curve, poor fit]"}, {"molecule": "COC(=O)[C@H](C)NC(=O)Nc1ccc(S(N)(=O)=O)cc1", "activity change, negative = inhibition": "inactive: -23.9%"}, {"molecule": "O=C(CCNc1cc(Cl)cc(Cl)c1)c1cccs1", "activity change, negative = inhibition": "inactive: 3.72%"}, {"molecule": "CC1(C)CC[C@]2(C(=O)O)CC[C@]3(C)C(=CC[C@@H]4[C@@]5(C)CC[C@H](O[C@@H]6O[C@H](C(=O)O)[C@@H](O)[C@H](O[C@@H]7OC[C@H](O)[C@H](O)[C@H]7O)[C@H]6O)C(C)(C)[C@@H]5CC[C@]43C)[C@@H]2C1", "activity change, negative = inhibition": "inactive: -23.6%"}, {"molecule": "COc1cc(C(C)=O)ccc1OCC(=O)Nc1cc(C)on1", "Potency": "inconclusive: 44.7 µM [inhibitor, partial curve, poor fit]"}, {"molecule": "COc1ccc(-c2nc(C)c(CCNS(=O)(=O)c3ccc(Cl)s3)s2)cc1", "Potency": "inconclusive: 25.1 µM [inhibitor, partial curve, poor fit]"}, {"molecule": "CCN(CC)CCOC(=O)c1ccc(NC(=O)/C=C/c2cccs2)cc1", "Potency": "inconclusive: 20 µM [inhibitor, partial curve, poor fit]"}, {"molecule": "Nc1ccc(C(=O)c2cc3c(ccc4ccccc43)[nH]2)cc1", "Potency": "inconclusive: 12.2 µM [inhibitor, partial curve, poor fit]"}, {"molecule": "O=C(COc1ccccc1Cl)NC(=O)NC1CCCCC1", "Potency": "inconclusive: 100 µM [inhibitor, single point]"}, {"molecule": "CC(C)CCOc1ccc(/C=C/c2nc3ccccc3s2)cc1", "activity change, negative = inhibition": "inactive: 14.6%"}, {"molecule": "CCCCCC(C=O)CCC(=O)c1ccc(Br)cc1", "note": "(centres undefined)", "Potency": "inconclusive: 50.1 µM [inhibitor, partial curve, poor fit]"}, {"molecule": "CCc1ccccc1Nc1nn2c(=O)c3ccc(C(=O)NCc4ccccn4)cc3nc2s1", "activity change, negative = inhibition": "inactive: -19.4%"}, {"molecule": "CSc1cccc(NC(=S)NC(=O)CCc2ccccc2)c1", "Potency": "inconclusive: 17.8 µM [inhibitor, partial curve, poor fit]"}, {"molecule": "COC(=O)C1=C(C)N(Cc2cccc(C(F)(F)F)c2)C(=NCc2cc(OC)c(OC)c(OC)c2)NC1c1ccc(Cl)cc1", "note": "(centres undefined)", "Potency": "inconclusive: 100 µM [inhibitor, single point]"}, {"molecule": "Cc1ccc(Cn2c(CN3CCN(C(=O)c4ccco4)CC3)nc3c2c(=O)n(C)c(=O)n3C)cc1", "activity change, negative = inhibition": "inactive: -4.98%"}, {"molecule": "COc1ccc(Oc2ncc3ncc(=O)n(C)c3n2)cc1", "Potency": "inconclusive: 35.5 µM [inhibitor, single point]"}, {"molecule": "COc1ccc(-c2noc(Cn3c(=O)c4ccccc4n(CC(=O)NCc4ccccc4)c3=O)n2)cc1", "activity change, negative = inhibition": "inactive: -3.76%"}, {"molecule": "O=[N+]([O-])C(/C=C(\\Cl)[N+](=O)[O-])=C1N(Cc2ccc(Cl)nc2)CCN1Cc1ccc(Cl)nc1", "activity change, negative = inhibition": "inactive: -6.05%"}, {"molecule": "O=C(CCn1c(=S)[nH]c2ccccc2c1=O)NCC1CCCO1", "note": "(centres undefined)", "Potency": "inconclusive: 28.2 µM [inhibitor, partial curve, poor fit]"}, {"molecule": "O=C(O)c1ccccc1-c1nc2ccccc2[nH]1", "Potency": "inconclusive: 7.08 µM [inhibitor, full curve]"}, {"molecule": "O=[N+]([O-])c1ccc(COc2ccccc2CN2CCCCC2)cc1", "Potency": "inconclusive: 89.1 µM [inhibitor, single point]"}, {"molecule": "COc1cc(=O)n2c(c1C(=O)Nc1ccc(Br)cc1F)CCCC2", "Potency": "active: 20 µM"}, {"molecule": "CCCC(=O)Nc1sc(Cc2ccccc2)c(C)c1C(N)=O", "Potency": "inconclusive: 44.7 µM [inhibitor, partial curve, poor fit]"}, {"molecule": "Oc1cccc(Nc2nccc3[nH]c(-c4cccc(OC(F)(F)F)c4)nc23)c1", "Potency": "inconclusive: 79.4 µM [inhibitor, partial curve, poor fit]"}, {"molecule": "COC(=O)c1cc(C(C)C)sc1NC(=O)Cc1ccc(Cl)c(Cl)c1", "activity change, negative = inhibition": "inactive: -6.62%"}]}]}
